Data on 69 sequences can be found in PubChem BioAssay AID1347426 (Functional Genomics Laboratory (NCATS/FGL), 2020).

In all, about 31,000 sequences went through this assay and about 1,400 (4.5%) were called active.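 The calls were made as follows: active = median seed-adjusted z-score above 1 or below -1; inactive = the rest.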 The list shows a part of the results.

The experiment is described as follows: Novel Modifiers of Survival Motor Neuron (SMN) Protein: Gene Identification via Genome-wide siRNA Screen.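 Also: luminescence tracks full-length SMN protein made from the SMN2 reporter.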 Particulars: HEK293T SMN2-luciferase reporter, siRNA knockdown, 72 h; actives lie on both sides. Put shortly:
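Genome-wide siRNA screen (10418 genes, 3 siRNAs each, 1 pmol per well) by reverse transfection in HEK293T cells stably carrying an SMN2-luciferase reporter; luminescence after 72 hours, normalized to negative-control siRNA, log10-transformed, MAD-scored.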
For orientation: In a reporter assay the amount or activity of a reporter protein is the signal.
For GCCUCGUUUUGGUACACCATT against KCND3, the median seed-adjusted z-score was inactive: 0.282.

Regarding UCAUUACCCUGGACCUGGATT against TDG, the median seed-adjusted z-score is inactive: 0.0549. Take UGAAGAUGAUUGUCCUUAUTT against VAMP8: the median seed-adjusted z-score was inactive: -0.184. Next, GGAGCUGACUGCGGACUAUTT against RHOT2: inactive: 0.263; CUGUACAACGUCAACCUCATT against SCNN1D: active: -1.8. Take GAUCUGUCAAAAUUCCGAATT against TRPC1: the median seed-adjusted z-score was inactive: -0.196. Turning to CCAAGUUAUUGCUGACUUATT against CYP27C1, the median seed-adjusted z-score is inactive: 0.0462. As to GGAGGACCUUCGGAACCAATT against PPP1R12C, the median seed-adjusted z-score is inactive: -0.535. As for GGCUAAGAAUGACCAUUAUTT against NPR2, the median seed-adjusted z-score was inactive: 0.0712. With GGUAUGCUAUGUUGACUAUTT against TDRD7, the median seed-adjusted z-score is inactive: 0.11. Regarding CAAAGACCAGCGAAACAAATT against RYBP, the median seed-adjusted z-score was inactive: 0.831. In the case of AGUUCAUGUUCACAAAGCATT against CX3CR1, the median seed-adjusted z-score is inactive: -0.292.

Consider GGAUAACUGCAGGAGAACATT against WFDC3, for which the median seed-adjusted z-score is inactive: -0.644. With GGGUAUUGCUAUCAGCGAATT against MPDZ, the median seed-adjusted z-score is inactive: -0.398. AGGCCUUUGAGUUUGUGAATT against DUSP1: the median seed-adjusted z-score is inactive: 0.336. Take GAGUUACGAUGAGGUCAAATT against NIN: the median seed-adjusted z-score is inactive: 0.646. The result for CAACUUCUAUAGUCGAAUATT against TXNDC3 reads inactive: -0.649. In the case of CCAAGUUUUUGUAUCGCUUTT against CSRP2BP, the median seed-adjusted z-score is inactive: -0.526. The result for CGACUACUAUGAGCACCGUTT against HCN2 reads inactive: 0. Take ACAGUCUUGUGAUCAGAAATT against UHRF1: the median seed-adjusted z-score was inactive: 0.231.

GGAUCCAAAGUUGAACAAATT against HNRNPAB: the median seed-adjusted z-score is inactive: -0.631. For CCCGUGAUUUUGACAUCUATT against SGPL1, the median seed-adjusted z-score was inactive: 0.139. As for CAACAUUUAAAGAAGCUGATT against 14-Sep, the median seed-adjusted z-score is inactive: 0.227. With CAGCUGUGACCUUUGCUAATT against AQP7, the median seed-adjusted z-score was inactive: 0.0827. Regarding GCAAAUACGGUAUCGACAATT against CTTN, the median seed-adjusted z-score was inactive: -0.314.

Regarding CAACCGAUCCAAACAGUUATT against SLC25A21, the median seed-adjusted z-score is inactive: -0.219.

On to CCCUUUGAGUGUCCCAAAUTT against ZBTB48, for which the median seed-adjusted z-score is inactive: 0.0461. Turning to GGAGCAGUCGAAAACCCGATT against ARFRP1, the median seed-adjusted z-score was inactive: -0.329. Turning to CAGCGGAUGUGGAACCGAATT against NPR1, the median seed-adjusted z-score is inactive: -0.823. GAACAGUUCUUCGAAAACUTT against ZSCAN4: the median seed-adjusted z-score is inactive: 0.617. Consider UGGACCUGUCUGAUACUAATT against RDH11, for which the median seed-adjusted z-score is inactive: -0.241.

As for GGAAGAAAUUUGUCCGGAATT against ZNF510, the median seed-adjusted z-score is inactive: 0.28.

For the sequence CGAACAACAUGCAAAGGUUTT against CDR2, the median seed-adjusted z-score was inactive: -0.37. In the case of CAACAAGGAUUAUGCAGAUTT against COG2, the median seed-adjusted z-score is inactive: 0.791.

Consider UGCUCUUCUUCGAAAACUATT against SCN1B, for which the median seed-adjusted z-score was inactive: 0.331. The result for GAGUCAGAGGGUUUGAUAATT against GALM reads inactive: -0.111; that for GACUGAAGGUAAGAUUUCATT against SERPINB8, inactive: 0.371. The result for GAACCUCUUGGAGAGUGAATT against TRIM47 reads inactive: 0.707; that for CGCUGAAUGAAGAGUCUUATT against YWHAB, inactive: 0.579. Take AUCUUCACGUCGAAGUGAATT against BTN3A2: the median seed-adjusted z-score was inactive: 0.402. Regarding GGCUAUAACAAAAGGAUCATT against RBM44, the median seed-adjusted z-score is inactive: -0.00558.

GCACGUGGUUGAAAUCGAATT against FREM2: the median seed-adjusted z-score was inactive: 0.143. As for GAAUCUUCAAUCAAUCAUATT against ABI2, the median seed-adjusted z-score is inactive: -0.0392.

Consider CCUCCGAUGUGAAUACUGATT against SCMH1, for which the median seed-adjusted z-score was inactive: -0.305. In the case of GGUUUUAGACCACACUAAATT against MSH3, the median seed-adjusted z-score was inactive: 0.428. With CAGCUAUAAUCGUUUAUGATT against RAB22A, the median seed-adjusted z-score was inactive: 0.321. Turning to GCGAGAGUCUGCAUAGGUATT against GRIN2D, the median seed-adjusted z-score was inactive: -0.135.

Take GAUAUAUCCGAAACCAGUATT against PDGFD: the median seed-adjusted z-score is inactive: 0.366.

GGAUCACCACACUUCCCAATT against DDX23: the median seed-adjusted z-score was inactive: -0.468.

As to GGGCGAUGUCCAUCCACAATT against PIF1, the median seed-adjusted z-score was inactive: -0.0455. Turning to GGAUCUACCUACUCCCUCATT against ANGPTL7, the median seed-adjusted z-score was inactive: 0. Regarding GGAAAGCGACUGAACUUCATT against SLAMF6, the median seed-adjusted z-score is inactive: 0.0115. Regarding GGAUAACUGCGCUAGUGUUTT against EBI2, the median seed-adjusted z-score was inactive: -0.312. Turning to GCGCAGCGCAGAAAAGAGATT against SURF6, the median seed-adjusted z-score was inactive: 0.122.

As for CAAUACGAUUGGGACAUUATT against UXS1, the median seed-adjusted z-score was inactive: 0.25.

Consider GAGCAAAGAUUACCUAUUATT against LMAN1, for which the median seed-adjusted z-score was inactive: -0.118. For the sequence CAAAGGCAUUUACCUGAAATT against GPR133, the median seed-adjusted z-score is inactive: -0.681. As for GCAACUCCUUCCUCGCUAATT against RBM17, the median seed-adjusted z-score was inactive: 0.

Consider CGCAAAAUGGAAUAAGCUATT against DUSP8, for which the median seed-adjusted z-score is inactive: -0.0326.

Regarding GUACCAGUACUAUUCCAAUTT against PLA2G2A, the median seed-adjusted z-score is inactive: 0.809. Regarding CAGCCUCUUUGUAAAGAUUTT against ATP6V0B, the median seed-adjusted z-score is inactive: 0. GGAUUCACUCCACUACGAATT against DHH: the median seed-adjusted z-score was inactive: 0. Take GCAACUCACGGAUGAUUGATT against WBSCR22: the median seed-adjusted z-score is inactive: -0.21.

Consider UGAAAUUCCGCAAACACUATT against RBPMS, for which the median seed-adjusted z-score was inactive: 0. In the case of GAGCACCUUUGUUCACGUUTT against HTR2B, the median seed-adjusted z-score is inactive: -0.325. Turning to GCGGUAUGAUUGAUAAUCUTT against SH3BP4, the median seed-adjusted z-score is inactive: -0.0622. Consider GCUUGUAGCUCUUAAGGUUTT against PPP2CA, for which the median seed-adjusted z-score was inactive: 0.731. Next, GCAUGUCCGAUUUCAACUATT against CPZ: inactive: -0.0748; GCCUCUCUUGACUACAGAATT against ARL10: inactive: -0.455.
